Data as given in PubChem BioAssay AID602196 (INSERM, 2012)
Here is an unselected part of about 23,000 reagents tested. 455 of all reagents (2%) were called active. 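Active includes both protection and sensitisation; some change values fall well beyond the stated -50 to +50 range.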 Unmarked entries are inactive. Further read-outs or replicates are left out here. Not stated in the record: the amount of reagent.

Aim: 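Knock-downs that protect lung cancer cells from cisplatin or sensitise them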
System: human A549 lung cancer cells
Reagents: siRNA pair against human genes
Timing: 48 h transfection before cisplatin; time from cisplatin to read-out not stated
Challenge: cisplatin at a dose killing half of control-siRNA cells; exact dose and duration not given
Detection: 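Shift in cisplatin death relative to control siRNA, from -50 (all cells die) to +50 (no cells die); siRNAs harmful on their own scored 0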
Scale: two-siRNA summed score (-2 to +2): higher = both siRNAs protect from cisplatin killing; -2 means both sensitise
Rule for the call: 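siRNAs harmful alone (LDH or WST-1) get 0; others get +1 for less and -1 for more cisplatin killing; genes are active when the two siRNAs give the same sign, summing to ±2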
Meaning of the calls: active = both siRNAs shift cisplatin killing the same way; inactive = no consistent shift, or siRNA harmful alone

target gene | two-siRNA summed score (-2 to +2)
SAXO6 | 0
LOC401070 | 1
LOC138729 | 0
THRSP | 0
NUP98 | 0
LOC256126 | 0
LOC441339 | 1
FDPS | 0
LOC441475 | 0
GIP | 0
TMPRSS9 | 0
BPESC1 | 0
UBA1 | 0
ARNT | 1
ARL10 | 0
RPS20 | 0
LMAN1 | 0
LOC391265 | 0
DIPK1A | 0
LOC441828 | 0
ATG7 | 0
LOC149704 | 0
RMI1 | 0
C8orf76 | 0
LOC388142 | 1
DTX3 | 1
ASPA | 1
DNM1P44 | 1
EEF1AKMT2 | 1
BRINP2 | 0
LOC441334 | 0
ATP5PB | 1
RECK | 0
LOC442160 | 1
CNPY2 | 0
CDK12 | 0

In a second layout: entries from further up
{"target gene": "DNM1P44", "two-siRNA summed score (-2 to +2)": 1}
{"target gene": "EEF1AKMT2", "two-siRNA summed score (-2 to +2)": 1}
{"target gene": "BRINP2", "two-siRNA summed score (-2 to +2)": 0}
{"target gene": "LOC441334", "two-siRNA summed score (-2 to +2)": 0}
{"target gene": "ATP5PB", "two-siRNA summed score (-2 to +2)": 1}
{"target gene": "RECK", "two-siRNA summed score (-2 to +2)": 0}
{"target gene": "LOC442160", "two-siRNA summed score (-2 to +2)": 1}
{"target gene": "CNPY2", "two-siRNA summed score (-2 to +2)": 0}

More records follow:
target gene | two-siRNA summed score (-2 to +2)
GDAP1L1 | 0
FAM226A | 1
HSD3B2 | 0
COMMD2 | 0
LINC02764 | 1
ATP2B4 | -1
CYP7B1 | 0
UBD | -1
CCDC127 | 0
ARFGEF1 | 1
LOC440976 | 0
LOC389073 | 0
LOC341346 | 0
STX19 | 0
TMEM268 | 0
TWF1 | 0
PAPOLA | 0
ZNF337 | 0
ATP6V1A | 0
APLP2 | -1
ZNF429 | 0
